Laboratory results as given in PubChem BioAssay AID493014 (National Center for Advancing Translational Sciences (NCATS), 2011).
The other results are listed elsewhere or left out. Further columns of the screen follow, without active or inactive calls. The list favours compounds with an active or inconclusive main result. Potencies come from curve fits of mixed quality, noted in brackets.

Assay: qHTS Assay to Find Inhibitors of Chronic Active B-Cell Receptor Signaling
Conditions: ABC-DLBCL IkBa-CBG/CBR reporter, luminescence ratio (green luciferase fused to IkBa over red control in TMD8 lymphoma cells), 4 h
Summary of the method: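 TMD8 human ABC-DLBCL cells with doxycycline-inducible IκBα–green luciferase fusion and unfused red luciferase, in 0.5% FBS medium; compounds up to 46 uM, 4 h at 37C. Green/red luminescence ratio, filter-overlap corrected, fitted to concentration-response curves.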

[1] = measured here: CBR red luminescence, cell number
[2] = measured here: IkBa-CBG green luminescence

Structure (SMILES)	AC50 [1]	AC50 [2]
CCCc1nc2ccccc2c(C(=O)OC(C)C(=O)NCc2ccc3c(c2)OCO3)c1CC (stereo not drawn)	29.1 µM [falling, single point]	
Cc1ccc(NC(=O)/C=C2\NC(=O)CS2)cc1	11.2 µM [falling, partial curve, poor fit]	
O=C(CN(C(=O)CNC(=O)c1ccco1)c1ccc(F)c(Cl)c1)NC1CCCCC1	1.78 µM [rising, partial curve, poor fit]	
CN(C)CCn1c2c(c(SCC(=O)NCc3ccccc3)nc1=O)CCCC2	25.9 µM [falling, single point]	
CCN(CC)S(=O)(=O)c1ccc(Oc2ccc(S(=O)(=O)N(CC)CC)cc2)cc1	3.66 µM [falling, single point]	
COCCNC(=O)/C(C#N)=c1\s/c(=C\c2ccccc2OC(F)F)c(=O)n1Cc1ccccc1	35.5 µM [falling, single point]	
C=C(C)Cn1c(-c2ccc(OC)cc2)nc2ccccc21	28.2 µM [falling, single point]	
O=C(c1ccc(Cl)cc1)N1CCCCC(Sc2nnc(-c3ccc4c(c3)OCO4)o2)C1=O (stereo not drawn)	4.11 µM [falling, partial curve, poor fit]	
Nc1nnnn1/N=C/C(Br)=C/c1ccccc1	35.5 µM [falling, single point]	2.82 µM [falling, partial curve, poor fit]
COCCCn1c(-c2ccc(S(=O)(=O)N3CCOCC3)cc2)csc1=Nc1ccccc1	23.1 µM [rising, single point]	
CCNC(=O)c1cc2c(=O)n3cccc(C)c3nc2n(Cc2ccc(C)cc2)c1=N	5.62 µM [falling, single point]	
NC(=O)CNCCC(c1ccccc1)c1ccccc1	5.8 µM [falling, single point]	
CC1CC1C(=O)Nc1ccc(-c2ccccc2)cc1 (stereo not drawn)	29.1 µM [falling, single point]	
O=C(Nc1nnc(SCc2cccc(F)c2)s1)c1ccco1	7.08 µM [rising, partial curve, poor fit]	
Cc1cnc(C(=O)Nc2ccc3c(c2)CCC3)cn1	2.51 µM [rising, full curve, poor fit]	
O=S(=O)(/N=S1/CC=CCN1S(=O)(=O)c1ccccc1)c1ccccc1 (stereo not drawn)	5.8 µM [falling, partial curve, poor fit]	
CC1=CC(=O)C=C(C)C1=NOc1ccccc1[N+](=O)[O-]		20.6 µM [falling, single point]
Cc1[nH]nc(SCC(=O)NC2CCCCC2)c1[N+](=O)[O-]	11.2 µM [falling, partial curve]	
COc1ccccc1NC(=O)C(=O)NCc1ccccc1Cl	0.0058 µM [falling, full curve]	
COc1ccc(NC(=O)COC(=O)c2c3c(nc4ccccc24)CCCC3)cc1	2 µM [falling, full curve, poor fit]	
Cc1ccc2c(c1)c1c(n2CC(O)Cn2nc(C)c(Br)c2C)C(=O)CCC1 (stereo not drawn)	1.46 µM [rising, partial curve, poor fit]	
CS(=O)(=O)N1CCN(c2cnn(-c3ccccc3)c(=O)c2Cl)CC1	3.98 µM [falling, full curve]	

Of the compounds above, two contain a furan ring, fused or not:
Structure (SMILES)	AC50 [1]	AC50 [2]
O=C(CN(C(=O)CNC(=O)c1ccco1)c1ccc(F)c(Cl)c1)NC1CCCCC1	1.78 µM [rising, partial curve, poor fit]	
O=C(Nc1nnc(SCc2cccc(F)c2)s1)c1ccco1	7.08 µM [rising, partial curve, poor fit]	

Continuation:

Structure (SMILES)	AC50 [1]	AC50 [2]
CCOC(=O)c1c(NC(=O)CSc2nnc(CNc3ccc(F)cc3)o2)sc(C)c1C	20 µM [falling, partial curve]	
COc1ccc2c(c1)c(/C=N/Nc1nc3ccccc3[nH]1)c(C)n2C		17.8 µM [falling, partial curve, poor fit]
CC(=O)/C=C/c1ccc2ccccc2n1	2.82 µM [falling, full curve, poor fit]	
Cc1c(CC(Cl)(Cl)Cl)c2c(n1O)CC(C)(C)CC2=O	16.4 µM [falling, single point]	
O=C(Nc1ccc(Nc2ccccc2)cc1)C(Cl)Cl	2.91 µM [rising, full curve, poor fit]	
CCOC(=O)Cn1nnc(-c2ccc(SC)cc2)n1	9.2 µM [rising, single point]	
CSc1ccccc1NC(=O)c1cc(-c2ccco2)on1	6.31 µM [falling, partial curve]	
CCOC(=O)c1c(C)[nH]c(N=Nc2ccc(C)cc2)c1C	23.1 µM [rising, partial curve, poor fit]	
Cc1ccc(SC(c2ccccc2)C(Cn2cncn2)C(=O)c2ccccc2)cc1 (stereo not drawn)	29.1 µM [falling, single point]	
Cc1ccc(CNC(=O)c2cccc(-n3cnnn3)c2)cc1	20.6 µM [rising, partial curve, poor fit]	
C#CCOC(=O)c1ccc(-n2cncn2)nc1	29.1 µM [falling, single point]	
Cc1nc2c3cc(F)ccc3n(CCN3CCCCC3)c2s1		15.8 µM [falling, single point]
Cn1c(=O)c2c(nc(N3CCOCC3)n2CCCNC2=NCCCCC2)n(C)c1=O	0.82 µM [falling, full curve, poor fit]	
Cc1cccc(OCC(=O)NC(=S)Nc2ccccc2N2CCOCC2)c1C	20 µM [falling, single point]	
O=C(NCCC1=CCCCC1)c1ccc(-n2cncn2)cc1	32.6 µM [rising, single point]	
Cc1ccc(-n2nnnc2C(Cl)c2nnnn2-c2ccc(C)cc2)cc1	29.1 µM [falling, single point]	
COc1ccc(N2CCN(C(=O)COCc3cc(-c4ccc5c(c4)OCO5)on3)CC2)cc1	25.1 µM [falling, single point]	
O=C1C(Cl)=C(NCC2CCCO2)C(=O)N1C1CCCCC1 (stereo not drawn)	10 µM [falling, partial curve, poor fit]	
O=C(NCC1([N+](=O)[O-])CN(C(=O)c2ccccc2)CN(C(=O)c2ccccc2)C1)c1ccccc1	35.5 µM [rising, partial curve, poor fit]	
Cc1cccc(NC(=O)CNC(=O)c2cccs2)n1	14.6 µM [falling, partial curve]	
COc1ccccc1C(=O)NNC(=O)c1cccc(O)c1	10 µM [falling, partial curve]	
O=C(NCCCN1CCCC1=O)c1cccc(Oc2ccccc2)c1	3.98 µM [rising, full curve, poor fit]	

Reformatted: results already given.
Structure (SMILES),AC50 [1],AC50 [2]
COc1ccc(N2CCN(C(=O)COCc3cc(-c4ccc5c(c4)OCO5)on3)CC2)cc1,"25.1 µM [falling, single point]",
O=C1C(Cl)=C(NCC2CCCO2)C(=O)N1C1CCCCC1 (stereo not drawn),"10 µM [falling, partial curve, poor fit]",

Going on with the list:

Structure (SMILES)	AC50 [1]	AC50 [2]
COc1ccc(CNC(=O)C/C(C)=N/NC(=O)c2ccc([N+](=O)[O-])cc2Cl)cc1	5.01 µM [falling, full curve, poor fit]	
COc1ccc(S(=O)(=O)N2CCOC23CCN(S(=O)(=O)c2ccc(C)cc2)CC3)cc1	1.16 µM [falling, partial curve, poor fit]	
Cc1c(C(=O)OCC(=O)N2CC(=O)Nc3ccccc32)oc2ccccc12	9.2 µM [rising, partial curve, poor fit]	
COc1ccc(CNC(=O)c2cc3c(s2)CS(=O)C3)cc1 (stereo not drawn)	2.06 µM [rising, full curve, poor fit]	
CCCCCCc1cc2cc(C(=O)Nc3ccccc3)c(=O)oc2cc1O	18.4 µM [falling, partial curve]	
CCCn1c(SC(C)C(=O)NCC2CCCO2)nc2cc(Cl)ccc2c1=O (stereo not drawn)	13 µM [falling, partial curve, poor fit]	4.61 µM [rising, full curve, poor fit]
O=C(O)c1ccc(-c2ccc(/C=c3/sc4nc5ccccc5n4c3=O)o2)cc1Cl	22.4 µM [falling, single point]	
O=C(NNC(=S)Nc1ccc(Cl)c(Cl)c1)c1ccccn1	10 µM [falling, partial curve]	25.1 µM [falling, single point]
O=C1Nc2ccc(F)cc2C12Nc1ccccc1-c1nnc(SCc3ccccc3)nc1O2 (stereo not drawn)	11.2 µM [falling, partial curve]	
O=C1NN(c2ccccc2)C(=O)/C1=C/c1ccc(Sc2cccc3ccccc23)o1	0.0731 µM [rising, full curve, poor fit]	
COCn1c(COc2ccccc2)nc2ccccc21	13 µM [rising, partial curve, poor fit]	
Cc1ccc(C(=O)NNC(=O)c2ccncc2)cc1[N+](=O)[O-]	20.6 µM [falling, partial curve]	
Cc1csc2nc(CNC(=O)C3CCCCC3)cn12	11.6 µM [rising, partial curve, poor fit]	
COc1ccc(OCCOC(=O)Nc2ccccc2)cc1	2.51 µM [rising, partial curve]	
O=[N+]([O-])c1cc(S(=O)(=O)N2CCCC2)ccc1OCc1ccccc1	2 µM [falling, partial curve, poor fit]	
CCn1c(NCc2ccc3c(c2)OCO3)nc2ccccc21	0.562 µM [rising, partial curve, poor fit]	
O=C(NN=C1CCCC1)c1cccc(O)c1	6.31 µM [falling, partial curve]	
O=C(O)c1nn(CCOc2ccc(Cl)cc2Cl)c(=O)c2ccccc12	1.12 µM [rising, partial curve]	
O=C1N/C(=C/c2ccc(N3CCOCC3)o2)C(=O)N1c1ccccc1	29.1 µM [falling, single point]	3.66 µM [falling, partial curve, poor fit]
CCOc1ccc(-n2c(C)nc3cc(C(=O)NCc4ccc5c(c4)OCO5)ccc32)cc1	6.51 µM [rising, single point]	
